# Measured values: paper PMC7819943, “Rice protein-binding microarrays: a tool to detect cis-acting elements near promoter regions in rice”
# Amino acid sequences for entries named in this document (tags omitted).
# UniProt Q0JBA9, entry or part of it: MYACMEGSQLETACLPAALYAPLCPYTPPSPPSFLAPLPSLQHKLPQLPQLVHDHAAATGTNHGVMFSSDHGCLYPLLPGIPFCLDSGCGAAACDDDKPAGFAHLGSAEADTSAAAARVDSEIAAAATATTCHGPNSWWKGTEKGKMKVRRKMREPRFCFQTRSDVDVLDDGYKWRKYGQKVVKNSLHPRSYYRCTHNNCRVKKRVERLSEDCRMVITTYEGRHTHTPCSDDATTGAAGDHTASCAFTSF
# The list shows a part of the results.
# Molecular target: OsWRKY34 (Oryza sativa, UniProt Q0JBA9 1-250)
# Assay: protein-binding microarray (RPBM); PBS, 2% BSA, 51.3 ng/ul salmon testes DNA, 50 uM zinc acetate, 200 nM TF, 25 C, 1 h; high values mean tight binding
# Conditions: protein: recombinant; tags: N-terminal polyhistidine and DsRed monomer fusion (pET32a); label: CyDye5-dUTP incorporated in the synthesized complementary strand; 3' TTTTT single-stranded linker to array surface; dsDNA, one strand shown
# Summary of the method: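 For the binding signal, per-feature fluorescence intensity was read in arbitrary units on an Axon 4000B scanner. Before scanning, a 2% BSA-blocked custom Agilent array made double-stranded with Cy5-dUTP was washed after 1 h at 25 °C with 200 nM protein and 50 µM zinc acetate. The proteins were Ni–NTA-purified transcription factors with N-terminal polyhistidine and DsRed fusions, expressed in E. coli BL21-CodonPlus.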
row,Sequence,binding signal
1,AACAATATATCAGGCAAAACTCTTACATTCTTTTTTTTGGCGGAGTCACCTAGTGCAG,9140 fluorescence intensity (a.u.)
2,GGCTCGGCCCCGGTCCCGGCGCGCGCCCTCAACGGGATCCCGGAGTCACCTAGTGCAG,9640 fluorescence intensity (a.u.)
3,GCCACTAATCTTGTTCCTGCTGCATGCCAACCTGTCTTGACGGAGTCACCTAGTGCAG,9060 fluorescence intensity (a.u.)
4,CTTTGACTCAACATTGGTAACTTTGTCTATATAGGAGTATCGGAGTCACCTAGTGCAG,8980 fluorescence intensity (a.u.)
5,GTGTGTTGTATCGCCACAATGTTCTTATAGTTTCTTTTTTCGGAGTCACCTAGTGCAG,11500 fluorescence intensity (a.u.)
6,TCTCATCTATCTCCTCTACTATCTTATTCACCTCAGTATTCGGAGTCACCTAGTGCAG,10400 fluorescence intensity (a.u.)
7,CCATCTGCCTATCTATCTCTCGCAATTCTGGCGGCGCGCTCGGAGTCACCTAGTGCAG,9410 fluorescence intensity (a.u.)
8,TATATATATATATATATATATAAAAGTTACTTTTAGATTTCGGAGTCACCTAGTGCAG,11500 fluorescence intensity (a.u.)
9,ATCTACGTACTCCCCTTGTCGTCGTGTACAAACATTTACTCGGAGTCACCTAGTGCAG,9650 fluorescence intensity (a.u.)
10,CTAACATAGCCGTTGACTTGACATAGTATGTGATGTTCAGCGGAGTCACCTAGTGCAG,9570 fluorescence intensity (a.u.)
11,ATTGTAGTGCTCGTACTAGTACTGGTTTCTTTTGTTGTTCCGGAGTCACCTAGTGCAG,10300 fluorescence intensity (a.u.)
12,ATGTTACCTTTCCCGCCTCCTTTTCGCTTCTTTTATCCTCCGGAGTCACCTAGTGCAG,9400 fluorescence intensity (a.u.)
13,TGACTACTTGGCCATTTCAACTTCCTAAATTCGTATATCGCGGAGTCACCTAGTGCAG,10900 fluorescence intensity (a.u.)
14,ATCTCTCTCGATTCGTAGAGAGTTTGGTTGGTTGATAGCTCGGAGTCACCTAGTGCAG,9700 fluorescence intensity (a.u.)
15,CATCGCTTCTCCACCGTTGCAGCCTGCCACCCGTCGTGGCCGGAGTCACCTAGTGCAG,8670 fluorescence intensity (a.u.)
16,GCATTCACTCCATCGCACCACTTCATGCCGCAAAATGTTTCGGAGTCACCTAGTGCAG,9970 fluorescence intensity (a.u.)
17,GTGTCGGCGGAGGGGCGCGCGGCGGGGTCGGCGGAGGCGCCGGAGTCACCTAGTGCAG,8590 fluorescence intensity (a.u.)
18,ACCGCCTCCATCGGCCATTCAACCTGCAAGCGCTCGACCGCGGAGTCACCTAGTGCAG,9130 fluorescence intensity (a.u.)
19,CGGGCGGATGAGGGGCGGCGATGGGCGGGCAAGGGGCGTGCGGAGTCACCTAGTGCAG,12500 fluorescence intensity (a.u.)
20,CAGTCAGTTTCCTCATCCTCTTTGCATCCTCCGCGCCCTCCGGAGTCACCTAGTGCAG,9760 fluorescence intensity (a.u.)
21,GTACGACAGTAGTTGTTTTTCTCGCTTTTGATTTTGAGTCCGGAGTCACCTAGTGCAG,8560 fluorescence intensity (a.u.)

# For convenience, some entries already given.
row,Sequence,binding signal
1,AACAATATATCAGGCAAAACTCTTACATTCTTTTTTTTGGCGGAGTCACCTAGTGCAG,9140 fluorescence intensity (a.u.)
2,GGCTCGGCCCCGGTCCCGGCGCGCGCCCTCAACGGGATCCCGGAGTCACCTAGTGCAG,9640 fluorescence intensity (a.u.)
3,GCCACTAATCTTGTTCCTGCTGCATGCCAACCTGTCTTGACGGAGTCACCTAGTGCAG,9060 fluorescence intensity (a.u.)
4,CTTTGACTCAACATTGGTAACTTTGTCTATATAGGAGTATCGGAGTCACCTAGTGCAG,8980 fluorescence intensity (a.u.)
5,GTGTGTTGTATCGCCACAATGTTCTTATAGTTTCTTTTTTCGGAGTCACCTAGTGCAG,11500 fluorescence intensity (a.u.)
6,TCTCATCTATCTCCTCTACTATCTTATTCACCTCAGTATTCGGAGTCACCTAGTGCAG,10400 fluorescence intensity (a.u.)
7,CCATCTGCCTATCTATCTCTCGCAATTCTGGCGGCGCGCTCGGAGTCACCTAGTGCAG,9410 fluorescence intensity (a.u.)
8,TATATATATATATATATATATAAAAGTTACTTTTAGATTTCGGAGTCACCTAGTGCAG,11500 fluorescence intensity (a.u.)
9,ATCTACGTACTCCCCTTGTCGTCGTGTACAAACATTTACTCGGAGTCACCTAGTGCAG,9650 fluorescence intensity (a.u.)
10,CTAACATAGCCGTTGACTTGACATAGTATGTGATGTTCAGCGGAGTCACCTAGTGCAG,9570 fluorescence intensity (a.u.)
11,ATTGTAGTGCTCGTACTAGTACTGGTTTCTTTTGTTGTTCCGGAGTCACCTAGTGCAG,10300 fluorescence intensity (a.u.)
12,ATGTTACCTTTCCCGCCTCCTTTTCGCTTCTTTTATCCTCCGGAGTCACCTAGTGCAG,9400 fluorescence intensity (a.u.)
13,TGACTACTTGGCCATTTCAACTTCCTAAATTCGTATATCGCGGAGTCACCTAGTGCAG,10900 fluorescence intensity (a.u.)

# More entries.

row,Sequence,binding signal
1,GCTTTCTTCTCTCTCTTCTCTTTTCTTCTCGATATGAGGTCGGAGTCACCTAGTGCAG,9360 fluorescence intensity (a.u.)
2,AACGTCTTTTCTCAATTGTGTTATTGCAGTTTCATGTGAGCGGAGTCACCTAGTGCAG,8100 fluorescence intensity (a.u.)
3,GTTGCCTCTCGCTCGCTGCTGCGGCTACTCATTGATCCTGCGGAGTCACCTAGTGCAG,9050 fluorescence intensity (a.u.)
4,CCCTCTGTTCTTTTCTCTTCTATTTCATCTCCTCGAAATACGGAGTCACCTAGTGCAG,9760 fluorescence intensity (a.u.)
5,GCCAGCGTTCCCTTGTTGCTCTGCGCCGCCGCCGGGAACGCGGAGTCACCTAGTGCAG,8640 fluorescence intensity (a.u.)
6,GGTTATCTGAGTTGGTTGGTTATGGCTTGAATTGCTTCTTCGGAGTCACCTAGTGCAG,15300 fluorescence intensity (a.u.)
7,CCAGCCACATCGCAGACTATGAATGCAAACAACGCTTATCCGGAGTCACCTAGTGCAG,8560 fluorescence intensity (a.u.)
8,ACCGCTTCAGCTTCCTCTCGCCGGCGTCGCGGCCGTCGTCCGGAGTCACCTAGTGCAG,8980 fluorescence intensity (a.u.)
9,TCTCTCGGCCCTCGTCCCGTCCCGTCTCGCCTCCTCCGCACGGAGTCACCTAGTGCAG,13600 fluorescence intensity (a.u.)
10,TTAGGGGTAGGAGGGGTCTCCACATGGCGGCGGCGGCGGCCGGAGTCACCTAGTGCAG,11600 fluorescence intensity (a.u.)
11,TTGCTTGCTGCCCAGTATTGGGAGGGGCCGAAGGGCAATGCGGAGTCACCTAGTGCAG,8100 fluorescence intensity (a.u.)
12,GCTGCCTGCCTGACCAATCCGTTATCTTCTTCCCCGATGCCGGAGTCACCTAGTGCAG,8510 fluorescence intensity (a.u.)
13,GCTAATAAGTGCTTACATTGTTTTGGATGATCACCAGCAACGGAGTCACCTAGTGCAG,8080 fluorescence intensity (a.u.)
14,ACATTGCCCTACTCCTCACGCTCTTTCGATCTTCCTCCTCCGGAGTCACCTAGTGCAG,8120 fluorescence intensity (a.u.)
15,ATATATCTTTGATGGTCGATGGCTGTTGGGTTTGTGGGCTCGGAGTCACCTAGTGCAG,11200 fluorescence intensity (a.u.)
16,TGTTAAAACACCCTTTTTCACTTTTCTAGCCGTTCACTTTCGGAGTCACCTAGTGCAG,9280 fluorescence intensity (a.u.)
17,TGTTCTTTTTTTTTACACGCGTTTTTTTTACATTGTCGTTCGGAGTCACCTAGTGCAG,18400 fluorescence intensity (a.u.)
18,AACCAATCACAACCCTGCACCATTTATTTATATCTACTTTCGGAGTCACCTAGTGCAG,9330 fluorescence intensity (a.u.)
19,TACTTTTCAAAATCCATCTTTATTTTTTTATATTTAATTCCGGAGTCACCTAGTGCAG,9370 fluorescence intensity (a.u.)
20,GGCTTTTTCTTTCGGGAGGAGGGATTTGGGTAGCAATGGCCGGAGTCACCTAGTGCAG,9720 fluorescence intensity (a.u.)
21,GGTCATTTCCATCTTGCGTCGTTAAATGCATTGTTTCTCCCGGAGTCACCTAGTGCAG,11700 fluorescence intensity (a.u.)
